Reference: doi:10.1101/2022.09.15.508097
These are yes or no findings as the source states them, for the method shown. A result given as binding can be weak or reduced; the word gives no strength.

Protein sequences, listed by entry. Tags and fused reporters are not part of them. Lines headed by an entry give the natural chain unless they say otherwise; changes in a name come on top.
UniProt Q9C0D4: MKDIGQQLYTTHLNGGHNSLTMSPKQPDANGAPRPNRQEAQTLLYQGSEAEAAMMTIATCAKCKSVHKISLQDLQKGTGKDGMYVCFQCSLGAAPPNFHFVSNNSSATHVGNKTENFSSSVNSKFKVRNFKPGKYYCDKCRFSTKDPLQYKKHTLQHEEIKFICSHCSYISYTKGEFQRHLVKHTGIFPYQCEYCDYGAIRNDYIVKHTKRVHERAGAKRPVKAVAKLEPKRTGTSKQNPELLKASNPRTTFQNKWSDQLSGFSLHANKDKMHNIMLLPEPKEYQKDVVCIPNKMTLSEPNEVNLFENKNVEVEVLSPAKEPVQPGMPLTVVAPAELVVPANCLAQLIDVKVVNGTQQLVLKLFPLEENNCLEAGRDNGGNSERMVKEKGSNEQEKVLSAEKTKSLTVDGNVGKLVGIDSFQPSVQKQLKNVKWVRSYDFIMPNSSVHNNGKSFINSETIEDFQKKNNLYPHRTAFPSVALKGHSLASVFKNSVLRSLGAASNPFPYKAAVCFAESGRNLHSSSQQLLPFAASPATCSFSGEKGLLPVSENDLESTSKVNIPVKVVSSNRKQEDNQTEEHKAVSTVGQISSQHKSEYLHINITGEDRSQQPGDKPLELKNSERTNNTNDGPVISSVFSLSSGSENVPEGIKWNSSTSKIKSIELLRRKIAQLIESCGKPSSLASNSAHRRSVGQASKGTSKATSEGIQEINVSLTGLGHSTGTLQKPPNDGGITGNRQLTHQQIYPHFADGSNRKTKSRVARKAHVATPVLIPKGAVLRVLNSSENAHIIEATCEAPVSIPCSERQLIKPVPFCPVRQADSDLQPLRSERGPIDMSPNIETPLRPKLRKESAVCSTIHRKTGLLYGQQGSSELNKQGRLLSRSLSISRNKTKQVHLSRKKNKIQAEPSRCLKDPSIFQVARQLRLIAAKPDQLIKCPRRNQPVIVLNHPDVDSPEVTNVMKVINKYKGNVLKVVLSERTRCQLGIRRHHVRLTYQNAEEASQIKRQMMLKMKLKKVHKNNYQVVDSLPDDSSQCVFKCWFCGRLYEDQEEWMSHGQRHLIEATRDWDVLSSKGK

Experiments:
Experiment in all cases: fluorescence microscopy-based interaction-trap
[1] = biological target: TetR-EYFP-ZNF518B^KSS/NC (human) (UniProt Q9C0D4)
[2] = biological target: TetR-EYFP-ZNF518B^770–987 KSS/C (human) (UniProt Q9C0D4)
[3] = biological target: TetR-EYFP-ZNF518B^KSS/C (human) (UniProt Q9C0D4)
[4] = biological target: TetR-EYFP-ZNF518B^KSS/N (human) (UniProt Q9C0D4)

Measured: binding

B1: Halo-CENP-B^133–599 (domain or fragment, UniProt P07199 133-599)
chain: VSCSGVARARARNAAPRTPAAPASPAAVPSEGSGGSTTGWRAREEQPPSVAEGYASQDVFSATETSLWYDFLPDQAAGLCGGDGRPRQATQRLSVLLCANADGSEKLPPLVAGKSAKPRAGQAGLPCDYTANSKGGVTTQALAKYLKALDTRMAAESRRVLLLAGRLAAQSLDTSGLRHVQLAFFPPGTVHPLERGVVQQVKGHYRQAMLLKAMAALEGQDPSGLQLGLTEALHFVAAAWQAVEPSDIAACFREAGFGGGPNATITTSLKSEGEEEEEEEEEEEEEEGEGEEEEEEGEEEEEEGGEGEELGEEEEVEEEGDVDSDEEEEEDEESSSEGLEAEDWAQGVVEAGGSFGAYGAQEEAQCPTLHFLEGGEDSDSDSEEEDDEEEDDEDEDDDDDEEDGDEVPVPSFGEAMAYFAMVKRYLTSFPIDDRVQSHILHLEHDLVHVTRKNHARQAGVRGLGHQS
modifications: Halo Tag TMR ligand on the Halo tag
binds: all assays above
